# In the supplement of paper PMC8728848:
# Some of the results follow.
# Assays:
# Assay in all cases: glycan array binding signal (z-score within array); higher = stronger binding
# Details in all cases: glycan notation: IUPAC condensed, linker removed
# [1] = target: Gal(b1-4)GlcNAc(a1-6)Gal(b1-4)GlcNAc
# How it was run: (§1)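 The binding signal is a Z-score computed within each array and averaged over linkers. Arrays of the same protein sequence at different concentrations or buffers were also averaged together. Data originate from 3228 arrays in the Consortium for Functional Glycomics database, kept only where the protein sequence was available.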
# [2] = target: Gal(b1-4)GlcNAc(b1-2)Man(a1-3)Man(b1-4)GlcNAc(b1-4)GlcNAc
# How it was run: as §1
# [3] = target: Gal(b1-4)GlcNAc(b1-2)Man(a1-3)[Gal(b1-4)GlcNAc(b1-2)Man(a1-6)]Man(b1-4)GlcNAc(b1-4)GlcNAc
# How it was run: as §1
# [4] = target: Gal(b1-4)GlcNAc(b1-2)Man(a1-3)[Gal(b1-4)GlcNAc(b1-2)Man(a1-6)]Man(b1-4)GlcNAc(b1-4)[Fuc(a1-6)]GlcNAc
# How it was run: as §1
# [5] = target: Gal(b1-4)GlcNAc(b1-2)Man(a1-3)[GlcNAc(b1-2)Man(a1-6)]Man(b1-4)GlcNAc(b1-4)GlcNAc
# How it was run: as §1
# [6] = target: Gal(b1-4)GlcNAc(b1-2)Man(a1-3)[Man(a1-6)]Man(b1-4)GlcNAc(b1-4)GlcNAc
# How it was run: as §1
# [7] = target: Gal(b1-4)GlcNAc(b1-2)Man(a1-6)Man(b1-4)GlcNAc(b1-4)GlcNAc
# How it was run: as §1
# [8] = target: Gal(b1-4)GlcNAc(b1-2)Man(a1-6)[GlcNAc(b1-2)Man(a1-3)]Man(b1-4)GlcNAc(b1-4)GlcNAc
# How it was run: as §1
# [9] = target: Gal(b1-4)GlcNAc(b1-2)Man(a1-6)[Man(a1-3)]Man(b1-4)GlcNAc(b1-4)GlcNAc
# How it was run: as §1
# [10] = target: Gal(b1-4)GlcNAc(b1-2)[Gal(b1-4)GlcNAc(b1-4)]Man(a1-3)[Gal(b1-4)GlcNAc(b1-2)Man(a1-6)]Man(b1-4)GlcNAc(b1-4)GlcNAc
# How it was run: as §1
# [11] = target: Gal(b1-4)GlcNAc(b1-2)[Gal(b1-4)GlcNAc(b1-4)]Man(a1-3)[Gal(b1-4)GlcNAc(b1-2)[Gal(b1-4)GlcNAc(b1-6)]Man(a1-6)]Man(b1-4)GlcNAc(b1-4)GlcNAc
# How it was run: as §1
# [12] = target: Gal(b1-4)GlcNAc(b1-3)Gal(b1-3)GlcNAc
# How it was run: as §1
# [13] = target: Gal(b1-4)GlcNAc(b1-3)Gal(b1-4)Glc
# How it was run: as §1
# [14] = target: Gal(b1-4)GlcNAc(b1-3)Gal(b1-4)GlcNAc
# How it was run: as §1
# [15] = target: Gal(b1-4)GlcNAc(b1-3)Gal(b1-4)GlcNAc(b1-3)Gal(b1-4)GlcNAc
# How it was run: as §1
# [16] = target: Gal(b1-4)GlcNAc(b1-3)Gal(b1-4)[Fuc(a1-3)]GlcNAc(b1-3)Gal(b1-4)[Fuc(a1-3)]GlcNAc
# How it was run: as §1
# [17] = target: Gal(b1-4)GlcNAc(b1-3)GalNAc
# How it was run: as §1
# [18] = target: Gal(b1-4)GlcNAc(b1-3)[Gal(b1-4)GlcNAc(b1-6)]Gal(b1-4)GlcNAc
# How it was run: as §1
# [19] = target: Gal(b1-4)GlcNAc(b1-3)[Gal(b1-4)GlcNAc(b1-6)]GalNAc
# How it was run: as §1
# [20] = target: Gal(b1-4)GlcNAc(b1-3)[GlcNAc(b1-6)]Gal(b1-4)GlcNAc
# How it was run: as §1
# [21] = target: Gal(b1-4)GlcNAc(b1-6)Gal(b1-4)GlcNAc
# How it was run: as §1
# [22] = target: Gal(b1-4)GlcNAc(b1-6)GalNAc
# How it was run: as §1
# [23] = target: Gal(b1-4)GlcNAc(b1-6)[Gal(b1-3)]GalNAc
# How it was run: as §1
# [24] = target: Gal3S(b1-3)GalNAc
# How it was run: as §1
# [25] = target: Gal3S(b1-3)GlcNAc
# How it was run: as §1
# [26] = target: Gal3S(b1-3)[Fuc(a1-4)]GlcNAc
# How it was run: as §1
# [27] = target: Gal3S(b1-4)Glc
# How it was run: as §1
# [28] = target: Gal3S(b1-4)Glc6S
# How it was run: as §1
# [29] = target: Gal3S(b1-4)GlcNAc
# How it was run: as §1
# [30] = target: Gal3S(b1-4)GlcNAc6S
# How it was run: as §1
# [31] = target: Gal3S(b1-4)[Fuc(a1-3)]Glc
# How it was run: as §1
# [32] = target: Gal3S(b1-4)[Fuc(a1-3)]Glc6S
# How it was run: as §1
# [33] = target: Gal3S4S(b1-4)GlcNAc
# How it was run: as §1
# [34] = target: Gal3S6S(b1-4)GlcNAc
# How it was run: as §1
# [35] = target: Gal3S6S(b1-4)GlcNAc6S
# How it was run: as §1
# [36] = target: Gal4S(b1-4)GlcNAc
# How it was run: as §1
# [37] = target: Gal4S6S(b1-4)GlcNAc
# How it was run: as §1
# [38] = target: Gal6S(b1-4)Glc
# How it was run: as §1
# [39] = target: Gal6S(b1-4)Glc6S
# How it was run: as §1
# [40] = target: Gal6S(b1-4)GlcNAc
# How it was run: as §1
# [41] = target: Gal6S(b1-4)GlcNAc6S
# How it was run: as §1
# [42] = target: GalNAc(a1-3)Gal
# How it was run: as §1
# [43] = target: GalNAc(a1-3)GalNAc
# How it was run: as §1
# [44] = target: GalNAc(a1-3)GalNAc(a1-3)Gal(a1-4)Gal(b1-4)GlcNAc
# How it was run: as §1
# [45] = target: GalNAc(b1-3)Gal
# How it was run: as §1
binder,measurement,setting,value
"CLEC9a (Mus musculus), Q8BRU4 (protein) MHAEEIYTSLQWDIPTSEASQKCQSPSKCSGAWCVVTMISCVVCMGLLATSIFLGIKFFQVSSLVLEQQERLIQQDTALVNLTQWQRKYTLEYCQALLQRSLHSGSDCSPCPHNWIQNGKSCYYVFERWEMWNISKKSCLKEGASLFQIDSKEEMEFISSIGKLKGGNKYWVGVFQDGISGSWFWEDGSSPLSDLLPAERQRSAGQICGYLKDSTLISDKCDSWKYFICEKKAFGSCI",glycan array binding signal (z-score),[1],0.811
same,glycan array binding signal (z-score),[2],0.687
same,glycan array binding signal (z-score),[3],-0.676
same,glycan array binding signal (z-score),[4],0.33
same,glycan array binding signal (z-score),[5],-0.435
same,glycan array binding signal (z-score),[6],-0.314
same,glycan array binding signal (z-score),[7],0.272
same,glycan array binding signal (z-score),[8],0.477
same,glycan array binding signal (z-score),[9],-1.19
same,glycan array binding signal (z-score),[10],-0.001
same,glycan array binding signal (z-score),[11],1.54
same,glycan array binding signal (z-score),[12],0.389
same,glycan array binding signal (z-score),[13],-0.295
same,glycan array binding signal (z-score),[14],0.404
same,glycan array binding signal (z-score),[15],0.231
same,glycan array binding signal (z-score),[16],1.93
same,glycan array binding signal (z-score),[17],0.253
same,glycan array binding signal (z-score),[18],0.779
same,glycan array binding signal (z-score),[19],1.87
same,glycan array binding signal (z-score),[20],-0.296
same,glycan array binding signal (z-score),[21],-0.302
same,glycan array binding signal (z-score),[22],-0.352
same,glycan array binding signal (z-score),[23],-0.235
same,glycan array binding signal (z-score),[24],0.21
same,glycan array binding signal (z-score),[25],-0.876
same,glycan array binding signal (z-score),[26],1.28
same,glycan array binding signal (z-score),[27],0.279
same,glycan array binding signal (z-score),[28],-0.258
same,glycan array binding signal (z-score),[29],-0.177
same,glycan array binding signal (z-score),[30],0.269
same,glycan array binding signal (z-score),[31],0.198
same,glycan array binding signal (z-score),[32],0.399
same,glycan array binding signal (z-score),[33],-0.895
same,glycan array binding signal (z-score),[34],-0.733
same,glycan array binding signal (z-score),[35],-1.05
same,glycan array binding signal (z-score),[36],1.88
same,glycan array binding signal (z-score),[37],-1.4
same,glycan array binding signal (z-score),[38],0.159
same,glycan array binding signal (z-score),[39],-1.02
same,glycan array binding signal (z-score),[40],0.237
same,glycan array binding signal (z-score),[41],-0.445
same,glycan array binding signal (z-score),[42],-0.778
same,glycan array binding signal (z-score),[43],0.006
same,glycan array binding signal (z-score),[44],-1.51
same,glycan array binding signal (z-score),[45],0.273

# For reference, some entries already given:
binder,measurement,setting,value
"CLEC9a (Mus musculus), Q8BRU4 (protein) MHAEEIYTSLQWDIPTSEASQKCQSPSKCSGAWCVVTMISCVVCMGLLATSIFLGIKFFQVSSLVLEQQERLIQQDTALVNLTQWQRKYTLEYCQALLQRSLHSGSDCSPCPHNWIQNGKSCYYVFERWEMWNISKKSCLKEGASLFQIDSKEEMEFISSIGKLKGGNKYWVGVFQDGISGSWFWEDGSSPLSDLLPAERQRSAGQICGYLKDSTLISDKCDSWKYFICEKKAFGSCI",glycan array binding signal (z-score),[36],1.88
same,glycan array binding signal (z-score),[37],-1.4
